Measured values reported in the supplement of paper PMC7238544.
Where a name gives a salt, the structure may show the parent alone. ± gives the standard deviation of the averaged measurements. The list shows a part of the results. The data scatter; read single values as rough.

system: hAMSC donor 1; assay: transfection efficiency (EGFP+ cells / Hoechst count) fold change vs vehicle control (ratio); hAMSC are human adipose-derived mesenchymal stem cells given an EGFP-luciferase plasmid by lipofection; higher = enhanced transfection; conditions: priming compound concentration 1.7 µM

Row | SMILES | transfection efficiency
1 | C[C@]12C/C(=C/O)C(=O)C[C@@H]1CC[C@@H]1[C@@H]2CC[C@@]2(C)[C@H]1CC[C@]2(C)O [Oxymetholone] | 1.17 ± 0.13
2 | FC(F)(F)c1cccc(N2CCNCC2)c1 [TFMPP hydrochloride] | 0.985 ± 0.21
3 | CN(C)C(=O)Oc1ccc[n+](C)c1 [Pyridostigmine bromide] | 1.2 ± 0.29
4 | Oc1cc(Cl)ccc1Oc1ccc(Cl)cc1Cl [Triclosan] | 1.28 ± 0.21
5 | CCOC(=O)c1cncn1[C@H](C)c1ccccc1 [Etomidate] | 1.17 ± 0.19
6 | CCOC(=O)C1(c2ccccc2)CCN(CCC(C#N)(c2ccccc2)c2ccccc2)CC1 [Diphenoxylate hydrochloride] | 1.3 ± 0.1
7 | CCCCC/C=C\C/C=C\C/C=C\C/C=C\CCCC(=O)Nc1ccc(O)cc1 | 0.971 ± 0.083
8 | CCCCCCCCCOc1ccc2[nH]cc(CCN)c2c1 [5-Nonyloxytryptamine hydrochloride] | 1.15 ± 0.13
9 | COc1ccc(CCN)cc1OC [Homoveratrylamine] | 1.42 ± 0.47
10 | O=C(O)C(Cl)Cl [Dichloroacetic acid] | 1.04 ± 0.29
11 | C=C(C)CN1CC[C@@]23c4c5ccc(O)c4O[C@H]2c2[nH]c4ccccc4c2C[C@]3(O)C1C5 [SDM25N hydrochloride] | 1.11 ± 0.24
12 | c1ccc2c(c1)Nc1ccccc1S2 [Phenothiazine] | 1 ± 0.54
13 | CN1CC[C@@H](c2ccc(F)cc2)[C@H](COc2ccc3c(c2)OCO3)C1 [N-Methylparoxetine] | 0.624 ± 0.3
14 | CN1C(=O)CN=C(c2ccccc2)c2cc(Cl)ccc21 [Diazepam] | 1.33 ± 0.19

same assay, conditions: priming compound concentration 13 µM

Row | SMILES | transfection efficiency
15 | COC(=O)N1CCN(C(=O)Cc2ccc(Cl)c(Cl)c2)C(CN2CCCC2)C1 (stereo unspecified) | 1.16 ± 0.11
16 | c1ccc(Cn2ccnc2)cc1 [Benzylimidazole] | 1.14 ± 0.17
17 | O=C1CN=C(c2ccccc2)c2cc([N+](=O)[O-])ccc2N1 [Nitrazepam] | 0.861 ± 0.1
18 | C[C@]12CC[C@H](O)CC1=CC[C@@H]1[C@@H]2CC[C@]2(C)C(=O)CC[C@@H]12 [Dehydroepiandrosterone] | 1.03 ± 0.23
19 | O=C1CC[C@@]2(O)[C@H]3Cc4ccc(O)c5c4[C@@]2(CCN3CC2CC2)[C@H]1O5 [Naltrexone hydrochloride] | 0.97 ± 0.063
20 | N=C(NCc1ccc(Cl)cc1)SCCCc1c[nH]cn1 [Clobenpropit] | 0.521 ± 0.062
21 | C=C(C)[C@@H]1[C@H]2OC(=O)[C@@H]1[C@]1(O)C[C@H]3O[C@]34C(=O)O[C@H]2[C@]14C.CC(C)(O)[C@@H]1[C@H]2OC(=O)[C@@H]1[C@]1(O)C[C@H]3O[C@]34C(=O)O[C@H]2[C@]14C [Picrotin - Picrotoxinin] | 1.42 ± 0.38
22 | C[C@]12Cc3c[nH]nc3C[C@@H]1CC[C@@H]1[C@@H]2CC[C@@]2(C)[C@H]1CC[C@]2(C)O [Stanozolol] | 1.01 ± 0.068
23 | C[N+]1(C)CCCC(OC(=O)C(O)(c2ccccc2)c2ccccc2)C1 (stereo unspecified) [Mepenzolate bromide] | 0.977 ± 0.068
24 | CN[C@@H]1C[C@@H](c2ccc(Cl)c(Cl)c2)c2ccccc21 [Indatraline hydrochloride] | 0.979 ± 0.17
25 | C#CCN(C)[C@H](C)Cc1ccccc1 [Selegiline hydrochloride] | 1.22 ± 0.43
26 | C[C@]12CC[C@H]3[C@@H](CCC4=CC(=O)CC[C@@]43C)[C@@H]1CC[C@@H]2O [Testosterone] | 0.974 ± 0.19
27 | C[C@]12C/C(=C/O)C(=O)C[C@@H]1CC[C@@H]1[C@@H]2CC[C@@]2(C)[C@H]1CC[C@]2(C)O [Oxymetholone] | 1.02 ± 0.041
28 | FC(F)(F)c1cccc(N2CCNCC2)c1 [TFMPP hydrochloride] | 1.25 ± 0.046
29 | CN(C)C(=O)Oc1ccc[n+](C)c1 [Pyridostigmine bromide] | 1.05 ± 0.12
30 | Oc1cc(Cl)ccc1Oc1ccc(Cl)cc1Cl [Triclosan] | 1.13 ± 0.37
31 | CCOC(=O)c1cncn1[C@H](C)c1ccccc1 [Etomidate] | 1.07 ± 0.14
32 | CCOC(=O)C1(c2ccccc2)CCN(CCC(C#N)(c2ccccc2)c2ccccc2)CC1 [Diphenoxylate hydrochloride] | 1.07 ± 0.12
33 | CCCCC/C=C\C/C=C\C/C=C\C/C=C\CCCC(=O)Nc1ccc(O)cc1 | 1.35 ± 0.092
34 | CCCCCCCCCOc1ccc2[nH]cc(CCN)c2c1 [5-Nonyloxytryptamine hydrochloride] | 1.95 ± 0.95
35 | COc1ccc(CCN)cc1OC [Homoveratrylamine] | 1.56 ± 0.26
36 | O=C(O)C(Cl)Cl [Dichloroacetic acid] | 1.35 ± 0.27
37 | C[C@]12CC[C@H](O)CC1=CC[C@@H]1[C@@H]2CC[C@@]2(C)[C@H]1CC[C@]2(C)O [Methylandrostenediol] | 0.902 ± 0.36
38 | C=C(C)CN1CC[C@@]23c4c5ccc(O)c4O[C@H]2c2[nH]c4ccccc4c2C[C@]3(O)C1C5 [SDM25N hydrochloride] | 0.842 ± 0.33
39 | c1ccc2c(c1)Nc1ccccc1S2 [Phenothiazine] | 0.885 ± 0.17
40 | CN1CC[C@@H](c2ccc(F)cc2)[C@H](COc2ccc3c(c2)OCO3)C1 [N-Methylparoxetine] | 0.542 ± 0.23
41 | CN1C(=O)CN=C(c2ccccc2)c2cc(Cl)ccc21 [Diazepam] | 1.16 ± 0.32
